No constants are given. Whether binding was seen depends on the method and setting. A result given as binding can be weak or reduced; the word gives no strength.
Key:
Assay in all cases: recombinant HA ELISA
[1] = molecular target: recombinant HA of influenza B virus B/Mass/12 (Yamagata clade) (influenza B virus B/Mass/12 (Yamagata clade))
[2] = molecular target: hemagglutinin (HA) of influenza B virus B/Florida (Yamagata lineage) (influenza B virus B/Florida/06 (Yamagata clade))
[3] = molecular target: hemagglutinin (HA) of influenza B virus B/Malaysia (Victoria lineage) (influenza B virus B/Malaysia/04 (Victoria clade))
[4] = molecular target: recombinant HA of influenza B virus B/Wisconsin/10 (Yamagata clade) (influenza B virus B/Wisconsin/10 (Yamagata clade))
[5] = molecular target: recombinant HA of influenza B virus B/Brisbane/08 (Victoria clade) (influenza B virus B/Brisbane/08 (Victoria clade))

Measured: binding

B1: TRL856 (antibody, V domains shown)
VH: QVQLVESGGGLVQPGGSLRLSCAASGFTFSDYWMVWVRQAPGKGLVWVSRISSDGSTTSYADSVKGPFTISRDNAKNTLYLQMNSLRAEDTAVYYCARVATPYYYESGFDYWGQGALVTVSS
VL: DIVLTQSPSVSVAPGQTARITCGGNDIGSKSVHWYQQKPGQAPVLVVFDDRDRPSGIPERFSGSNSGNTATLTISRVEAGDEADYYCQVWDITSDLVVFGGGTKLTVVG
binds: [1] | [2] | [3] | [4] | [5]

B2: TRL813 (antibody, V domains shown)
VH: QVQLVESGGGLVQPGGSLRLSCAASGFIFGDFAIHWVRQASGKGLEWVARIRSGLNRFETAYAASVEGRLTISRDDSKSMAYLQMNNVKAEDTAVYLCTYLVGAVGFQHWGQGTLVTVSS
VL: DIVMTQSPSTLSASVGDRVTITCRASQTIYRWLAWYQQKPGKAPKVLIYKASTLESGVPSRFSGSGSGTEFTLAISSLQPDDFATYYCQQYNSFPYRFGQGTKVEIKR
binds: [1] | [2] | [3] | [4] | [5]

B3: TRL832 (antibody, V domains shown)
VH: QVQLVESGPGLMKPSETLSLTCTVSGGSVSNYYWSWIRQPPGKGLEWIGYVFYSGSSNYNPSLNNPSLKSRVTISIDTSNNQFSLKLSSVTAADTAVYYCARGRVNSGYDWGPNFDSWGQGALVTVSS
VL: DIVLTQAPSVSVSPGQTASITCSGDRLGEKFASWYQQKPGQSPVLVIYEDSKRPSGIPDRFSGSNSGNTATLTISGTQIMDEGDFFCQAWDSSTVVFGGGTKLTVLG
binds: [1] | [2] | [3] | [4] | [5]

B4: TRL841 (antibody, V domains shown)
VH: QVQLVESGGGVVQPGRSLRLSCAASGFTFSSYGIYWVRQAPGKGLEWVAFISYDEINKFYADSVKGRFTISRDNSKNTVFLQMNSLRDEDTAVYYCAKPLRGSYRYFDLWGRGTVVTVSS
VL: DIVMTQPPATLSVSPGERATLSCGASQGLGSNLAWYQQKPGQAPRLLIYAASTRATGITARFSGSGSGTEFTLTINSLQSEDFALYYCQQYTYWPLTFGGGTKVEIKR
binds: [1] | [2] | [3] | [4] | [5]

B5: TRL846 (antibody, V domains shown)
VH: QVQLVESGGGLVQPGGSLRLSCTVSGFTFNSYAMNWVRQAPGKGLEWVSGIRGSGENTYYAETVKGRFTISRDNSKNTLYLEMNSLRAEDTAVYYCARKWGRMTVFGVATDQLYYFDYWGQGTLVTVSS
VL: DITLTQSPATLSVSPGERATLSCRASQSVSSNLAWYQQKPGQAPRLLIYGASNRATDIPARFSGSGSGTEFTLTISSLQSEDFAVYYCQQFNDWPFLTFGGGTKVEIKR
binds: [1] | [2] | [3] | [4] | [5]

— patent publication US20170189529A1
